PubChem BioAssay AID743454, Peter MacCallum Cancer Centre, 2014
Aim: 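Genes whose loss kills vorinostat-resistant colon cancer cells under vorinostat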 (primary screen). Cells: human HCT116-VR colon cancer cells, selected for vorinostat resistance. Reagent: siRNA pool against human genes, 40 nM siRNA pool. Duration: vorinostat for 24 h, read-out about 72 h after transfection. Conditions: vorinostat at 2.5 µM final. Measurement: 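Cell viability by CellTiter-Fluor and caspase 3/7 activity by luminescence, each scaled to mock wells per plate, duplicates averaged, then robust z-scored over all plates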. Direction: viability robust z-score: higher = more viable cells than screen typical; caspase robust z-score: higher = more caspase 3/7 activity than screen typical. Hit rule: 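Hits are knock-downs in viability class RV1/RV2 or caspase class CA1/CA2, excluding ones that killed cells in the no-drug cell-count arm; hits then retested with single siRNAs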.
Here is one part, drawn at random, of about 18,000 reagents. 450 of all reagents (2.5%) were called active. 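Single biological run; no consistent viability z cut-off exists, so the class columns, not z-scores, define the calls.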 No sequences are given here.

Target gene	viability hit class	caspase hit class	viability robust z-score	caspase robust z-score	outcome
COPZ2	no change	no change	-2.91	-1.21	inactive
GRK3	no change	no change	0.64	-0.7	inactive
PRKAG1	no change	no change	0.46	0.22	inactive
POTEE	no change	no change	-1	2.36	inactive
RAB3IP	no change	no change	1.19	-0.94	inactive
TAF1A	no change	no change	1.39	-0.23	inactive
TRIM23	no change	no change	-0.15	-0.64	inactive
PPP6R2	no change	no change	-0.91	-0.73	inactive
OSR1	no change	no change	1.52	-0.05	inactive
TBCK	no change	no change	-0.29	-0.78	inactive
CUX2	no change	no change	-2.64	-1.09	inactive
MED12	no change	no change	0.25	-1.01	inactive
PARK7	no change	no change	1.01	1.54	inactive
TRIM44	no change	no change	0.87	0.05	inactive
ANGPTL1	no change	no change	0.58	-0.71	inactive
DHX58	no change	no change	-2.37	-0.5	inactive
SLF1	no change	no change	0.26	1.42	inactive
AGA	no change	no change	0.51	-0.31	inactive
TREML4	no change	no change	0.19	-0.68	inactive
DMRTC1B	no change	no change	0.12	1.73	inactive
PTPN12	no change	no change	0.76	-0.3	inactive
C8G	no change	no change	0.2	-0.34	inactive
WNT1	no change	no change	-1.11	1.98	inactive
C2CD3	no change	no change	-1.23	-0.65	inactive
TIMD4	no change	no change	0.55	-0.9	inactive
PSG5	no change	no change	-1.17	-0.88	inactive
COPS9	no change	no change	0.01	0.76	inactive
NMRAL1	no change	no change	-1.25	2.31	inactive
CLPTM1L	no change	no change	-1.06	0.96	inactive
ATP5MC3	no change	no change	1.45	-0.15	inactive
FOXN1	no change	no change	-0.4	0.38	inactive
PYDC2	no change	no change	0.33	0.18	inactive
DNAAF10	no change	no change	0.19	-0.74	inactive
PURB	no change	no change	0.16	0.15	inactive
XRCC2	no change	no change	0.14	0.28	inactive
SNX18	no change	no change	-3.33	0.24	inactive
FBXL9P	no change	no change	0.33	-0.48	inactive
CCDC159	no change	no change	-1.25	-0.3	inactive
RHOD	no change	no change	0.71	1.04	inactive
CRELD1	no change	no change	1.54	-0.55	inactive
SCN1A	no change	no change	0.44	-0.68	inactive
UTS2B	no change	no change	1.01	0.46	inactive
WDR36	no change	no change	-1.39	-0.5	inactive
TAF1L	no change	no change	-0.4	-0.67	inactive
CNOT1	no change	CA2 (caspase activation)	-1.74	13.5	active
KLHL12	no change	no change	0.76	-0.66	inactive
CYP24A1	no change	no change	-0.64	0.13	inactive
GPR85	no change	no change	0.34	0.43	inactive
MESD	no change	no change	-0.36	0.76	inactive
GOLGA8G	no change	no change	1.48	0.06	inactive
NR6A1	no change	no change	0.68	-0.59	inactive
SPPL2C	no change	no change	0.52	-0.89	inactive
ADRA2C	RV2 (reduced viability)	no change	-3.67	0.92	active
RGS17	no change	no change	0.06	-0.77	inactive
TPRA1	no change	no change	1.31	-0.11	inactive
ASCC1	no change	no change	0.62	-1.2	inactive
RBBP5	no change	no change	-0.02	-0.64	inactive

A stretch from the list above, for reference:
Target gene	viability hit class	caspase hit class	viability robust z-score	caspase robust z-score	outcome
UTS2B	no change	no change	1.01	0.46	inactive
WDR36	no change	no change	-1.39	-0.5	inactive
TAF1L	no change	no change	-0.4	-0.67	inactive
CNOT1	no change	CA2 (caspase activation)	-1.74	13.5	active
KLHL12	no change	no change	0.76	-0.66	inactive
CYP24A1	no change	no change	-0.64	0.13	inactive
GPR85	no change	no change	0.34	0.43	inactive
MESD	no change	no change	-0.36	0.76	inactive
GOLGA8G	no change	no change	1.48	0.06	inactive
